Assay results taken from patent publication US20020164789A1.
Results are given in words; binding and its absence hold for the method and conditions named. Some binding calls cover weakened binding; strength is not graded here.

Amino acid sequences for entries named in this document (tags omitted). A change or cut given only in a name is not applied to a line headed by its entry. Chains listed by the source or under a name are the forms on record and can include a tag or linker. Residues count along the entry.
UniProt Q91ZX7, residues 20-4545: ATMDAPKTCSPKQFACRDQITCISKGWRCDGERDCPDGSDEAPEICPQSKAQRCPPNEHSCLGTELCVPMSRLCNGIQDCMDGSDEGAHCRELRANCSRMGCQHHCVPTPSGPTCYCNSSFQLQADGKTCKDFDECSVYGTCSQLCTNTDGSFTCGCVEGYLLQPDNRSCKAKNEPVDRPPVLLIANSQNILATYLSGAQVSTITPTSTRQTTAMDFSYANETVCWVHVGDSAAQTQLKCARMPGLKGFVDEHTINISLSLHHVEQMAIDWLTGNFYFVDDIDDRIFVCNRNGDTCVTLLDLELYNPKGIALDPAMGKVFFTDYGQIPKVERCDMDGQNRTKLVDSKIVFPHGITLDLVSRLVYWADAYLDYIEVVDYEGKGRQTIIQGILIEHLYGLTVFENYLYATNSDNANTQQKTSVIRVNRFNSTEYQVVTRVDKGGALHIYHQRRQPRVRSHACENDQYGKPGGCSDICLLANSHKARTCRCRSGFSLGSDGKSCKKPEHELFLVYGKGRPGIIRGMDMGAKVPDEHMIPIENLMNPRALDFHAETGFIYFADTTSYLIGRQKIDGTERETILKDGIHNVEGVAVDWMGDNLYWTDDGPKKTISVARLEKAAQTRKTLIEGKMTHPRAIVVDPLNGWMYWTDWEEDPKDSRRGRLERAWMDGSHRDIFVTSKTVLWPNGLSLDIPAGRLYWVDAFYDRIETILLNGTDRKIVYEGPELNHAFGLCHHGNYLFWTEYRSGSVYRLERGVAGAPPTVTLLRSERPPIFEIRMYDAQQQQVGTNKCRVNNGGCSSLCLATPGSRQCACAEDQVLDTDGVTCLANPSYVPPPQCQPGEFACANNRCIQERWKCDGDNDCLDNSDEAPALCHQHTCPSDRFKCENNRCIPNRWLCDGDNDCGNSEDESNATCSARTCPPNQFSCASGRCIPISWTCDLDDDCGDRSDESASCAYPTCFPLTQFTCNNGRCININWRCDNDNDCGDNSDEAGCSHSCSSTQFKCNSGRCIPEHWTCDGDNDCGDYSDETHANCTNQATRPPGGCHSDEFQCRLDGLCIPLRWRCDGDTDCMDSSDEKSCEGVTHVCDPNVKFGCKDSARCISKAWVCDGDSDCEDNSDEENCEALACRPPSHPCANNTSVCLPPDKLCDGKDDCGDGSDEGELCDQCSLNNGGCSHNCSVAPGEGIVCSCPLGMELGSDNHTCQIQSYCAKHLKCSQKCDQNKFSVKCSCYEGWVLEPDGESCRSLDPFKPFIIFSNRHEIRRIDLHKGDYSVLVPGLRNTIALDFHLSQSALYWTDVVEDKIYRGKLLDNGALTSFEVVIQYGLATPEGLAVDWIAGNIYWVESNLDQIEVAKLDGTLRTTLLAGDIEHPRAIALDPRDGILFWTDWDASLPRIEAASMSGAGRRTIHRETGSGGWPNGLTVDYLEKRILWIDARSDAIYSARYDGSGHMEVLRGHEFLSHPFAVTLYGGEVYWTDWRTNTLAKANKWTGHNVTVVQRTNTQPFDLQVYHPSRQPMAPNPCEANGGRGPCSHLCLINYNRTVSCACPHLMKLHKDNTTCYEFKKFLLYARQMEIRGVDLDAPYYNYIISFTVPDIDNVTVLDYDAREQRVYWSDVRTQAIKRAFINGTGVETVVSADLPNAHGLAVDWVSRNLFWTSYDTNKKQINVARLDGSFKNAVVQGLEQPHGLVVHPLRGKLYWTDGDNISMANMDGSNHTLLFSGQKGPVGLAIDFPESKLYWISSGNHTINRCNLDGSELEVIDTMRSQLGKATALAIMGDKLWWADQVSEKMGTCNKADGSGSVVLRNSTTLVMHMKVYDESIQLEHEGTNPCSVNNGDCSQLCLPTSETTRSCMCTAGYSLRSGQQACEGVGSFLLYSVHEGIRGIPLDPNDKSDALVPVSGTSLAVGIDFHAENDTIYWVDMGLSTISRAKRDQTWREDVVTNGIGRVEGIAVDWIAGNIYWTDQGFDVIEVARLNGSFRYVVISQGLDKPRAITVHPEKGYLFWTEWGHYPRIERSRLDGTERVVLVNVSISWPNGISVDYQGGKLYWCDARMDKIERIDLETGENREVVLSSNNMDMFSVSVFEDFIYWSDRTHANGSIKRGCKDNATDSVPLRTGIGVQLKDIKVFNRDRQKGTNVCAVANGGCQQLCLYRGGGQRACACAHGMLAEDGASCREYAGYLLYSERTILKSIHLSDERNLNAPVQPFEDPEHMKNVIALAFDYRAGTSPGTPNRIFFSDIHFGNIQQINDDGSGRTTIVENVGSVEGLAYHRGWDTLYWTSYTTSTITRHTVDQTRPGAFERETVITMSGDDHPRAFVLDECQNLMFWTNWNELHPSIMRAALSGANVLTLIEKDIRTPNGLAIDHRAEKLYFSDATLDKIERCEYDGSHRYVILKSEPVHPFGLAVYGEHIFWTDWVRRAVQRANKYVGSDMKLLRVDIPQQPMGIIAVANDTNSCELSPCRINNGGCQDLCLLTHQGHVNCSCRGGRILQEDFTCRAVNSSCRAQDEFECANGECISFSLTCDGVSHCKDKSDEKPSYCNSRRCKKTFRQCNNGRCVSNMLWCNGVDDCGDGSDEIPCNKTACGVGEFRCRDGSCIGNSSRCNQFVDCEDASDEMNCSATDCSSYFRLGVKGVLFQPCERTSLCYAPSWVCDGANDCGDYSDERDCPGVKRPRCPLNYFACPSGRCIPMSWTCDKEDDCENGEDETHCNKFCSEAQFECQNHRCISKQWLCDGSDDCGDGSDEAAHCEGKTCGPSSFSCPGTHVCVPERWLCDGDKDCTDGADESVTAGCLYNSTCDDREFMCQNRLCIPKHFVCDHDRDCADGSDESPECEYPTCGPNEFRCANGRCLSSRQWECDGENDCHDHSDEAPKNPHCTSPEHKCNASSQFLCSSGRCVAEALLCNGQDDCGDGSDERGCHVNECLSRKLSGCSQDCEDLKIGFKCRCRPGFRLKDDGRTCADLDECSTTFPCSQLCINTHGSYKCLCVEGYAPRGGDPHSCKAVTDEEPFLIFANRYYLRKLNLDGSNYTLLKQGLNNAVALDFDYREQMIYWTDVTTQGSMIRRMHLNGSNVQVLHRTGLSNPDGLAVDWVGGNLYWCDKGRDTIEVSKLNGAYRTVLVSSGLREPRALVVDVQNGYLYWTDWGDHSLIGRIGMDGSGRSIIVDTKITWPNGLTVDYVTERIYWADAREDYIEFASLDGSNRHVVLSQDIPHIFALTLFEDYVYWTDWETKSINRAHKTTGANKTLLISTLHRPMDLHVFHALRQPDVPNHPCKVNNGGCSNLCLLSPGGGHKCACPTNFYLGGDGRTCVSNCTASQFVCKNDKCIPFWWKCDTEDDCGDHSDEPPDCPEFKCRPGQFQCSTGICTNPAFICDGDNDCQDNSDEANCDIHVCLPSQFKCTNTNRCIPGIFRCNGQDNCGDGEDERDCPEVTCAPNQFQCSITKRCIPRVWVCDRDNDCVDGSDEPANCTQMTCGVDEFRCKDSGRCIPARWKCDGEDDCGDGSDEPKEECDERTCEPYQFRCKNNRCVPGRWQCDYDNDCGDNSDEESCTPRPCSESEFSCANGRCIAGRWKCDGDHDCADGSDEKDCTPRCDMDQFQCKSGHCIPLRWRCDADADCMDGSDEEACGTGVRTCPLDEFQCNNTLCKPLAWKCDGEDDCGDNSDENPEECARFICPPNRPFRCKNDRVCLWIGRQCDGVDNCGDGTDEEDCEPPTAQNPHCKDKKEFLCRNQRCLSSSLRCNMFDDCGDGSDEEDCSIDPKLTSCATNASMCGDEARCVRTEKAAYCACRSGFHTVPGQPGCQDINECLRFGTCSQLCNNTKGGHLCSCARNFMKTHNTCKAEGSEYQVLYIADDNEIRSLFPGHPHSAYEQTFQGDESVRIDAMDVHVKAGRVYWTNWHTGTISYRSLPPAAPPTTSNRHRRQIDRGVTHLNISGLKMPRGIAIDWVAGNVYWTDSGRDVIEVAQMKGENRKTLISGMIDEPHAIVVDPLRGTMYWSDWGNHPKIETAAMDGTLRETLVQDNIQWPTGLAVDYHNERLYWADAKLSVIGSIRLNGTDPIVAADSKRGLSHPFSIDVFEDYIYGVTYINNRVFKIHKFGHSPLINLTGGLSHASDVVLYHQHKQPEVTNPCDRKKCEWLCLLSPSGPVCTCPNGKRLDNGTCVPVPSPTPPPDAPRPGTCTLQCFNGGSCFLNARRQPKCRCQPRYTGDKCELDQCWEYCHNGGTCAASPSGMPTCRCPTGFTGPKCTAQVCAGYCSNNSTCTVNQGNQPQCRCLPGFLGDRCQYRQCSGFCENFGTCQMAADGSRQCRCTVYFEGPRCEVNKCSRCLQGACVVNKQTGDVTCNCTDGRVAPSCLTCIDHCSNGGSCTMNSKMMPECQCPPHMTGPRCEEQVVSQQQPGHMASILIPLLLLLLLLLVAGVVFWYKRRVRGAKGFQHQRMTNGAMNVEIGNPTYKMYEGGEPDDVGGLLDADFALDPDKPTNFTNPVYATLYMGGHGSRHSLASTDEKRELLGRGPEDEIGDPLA
Human recombinant apoE2 (P02649, form named): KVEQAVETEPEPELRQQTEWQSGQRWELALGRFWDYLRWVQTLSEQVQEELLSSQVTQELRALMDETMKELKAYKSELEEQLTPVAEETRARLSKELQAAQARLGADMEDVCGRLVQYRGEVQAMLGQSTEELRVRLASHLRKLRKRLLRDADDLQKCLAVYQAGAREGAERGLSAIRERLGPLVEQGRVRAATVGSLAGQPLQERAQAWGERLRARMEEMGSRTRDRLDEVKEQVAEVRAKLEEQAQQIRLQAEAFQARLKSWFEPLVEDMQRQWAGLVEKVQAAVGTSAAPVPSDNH

Biological target: lipoprotein receptor-related protein (LRP) receptor on murine peritoneal macrophages (mouse) (UniProt Q91ZX7)
Experiment: competition with 125I-apoE mimetic peptide on murine peritoneal macrophages, 4 C

- binding: binds
Substance: Human recombinant apoE2 (from UniProt P02649 19-317) (ligand)
